± gives the standard deviation of the averaged measurements. This is a selection; strong and weak results do not stand in their true shares.
Compound: Nc1ncnc2c1ncn2[C@@H]1O[C@H](COP(=O)(O)OP(=O)(O)NP(=O)(O)O)[C@@H](O)[C@H]1O [adenylyl imidodiphosphate]
Test: NP40-soluble protein abundance relative to vehicle (solubility fold change) (ratio); higher = more soluble protein in presence of AMP-PNP
Method in brief: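 Each value is a fold change relative to the detergent-processed vehicle, calculated per replicate from vsn-normalised intensities. Jurkat crude lysate received eight concentrations (0.1 to 10 mM) for 10 min at room temperature and 3 min at 37 °C, then was solubilised in 0.8% NP40 with benzonase (60 min, 4 °C). The ultracentrifuged supernatant was TMT-labelled and run by LC-MS/MS in three independent experiments.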

The chains behind the UniProt entries cited, without tags or fusion partners. Where a name states a change or a piece, a line headed by the entry shows the natural chain unless it says otherwise.
UniProt Q86VQ1: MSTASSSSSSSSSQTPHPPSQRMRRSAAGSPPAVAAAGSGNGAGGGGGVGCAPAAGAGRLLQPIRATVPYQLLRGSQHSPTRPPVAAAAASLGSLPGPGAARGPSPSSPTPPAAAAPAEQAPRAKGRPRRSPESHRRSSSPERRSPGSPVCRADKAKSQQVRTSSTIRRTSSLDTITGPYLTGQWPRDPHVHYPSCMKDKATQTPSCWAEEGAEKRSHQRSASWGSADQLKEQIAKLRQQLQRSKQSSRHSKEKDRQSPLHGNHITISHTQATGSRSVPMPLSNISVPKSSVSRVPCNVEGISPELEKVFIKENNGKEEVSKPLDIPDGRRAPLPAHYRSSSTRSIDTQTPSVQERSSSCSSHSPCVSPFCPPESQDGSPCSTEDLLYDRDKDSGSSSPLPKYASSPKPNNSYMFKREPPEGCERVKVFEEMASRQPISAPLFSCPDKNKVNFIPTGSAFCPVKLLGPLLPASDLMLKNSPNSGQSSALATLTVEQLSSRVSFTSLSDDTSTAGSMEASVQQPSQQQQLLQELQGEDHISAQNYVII
UniProt Q8N6N3: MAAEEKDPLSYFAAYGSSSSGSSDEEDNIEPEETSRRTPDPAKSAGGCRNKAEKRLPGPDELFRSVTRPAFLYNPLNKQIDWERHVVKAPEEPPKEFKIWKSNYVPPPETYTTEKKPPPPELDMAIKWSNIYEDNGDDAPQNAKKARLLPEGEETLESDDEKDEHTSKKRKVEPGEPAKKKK
UniProt Q86V88: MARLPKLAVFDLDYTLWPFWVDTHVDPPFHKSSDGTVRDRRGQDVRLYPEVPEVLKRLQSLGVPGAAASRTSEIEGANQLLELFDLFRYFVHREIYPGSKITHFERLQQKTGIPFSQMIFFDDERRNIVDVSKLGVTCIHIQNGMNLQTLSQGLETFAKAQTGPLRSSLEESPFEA
UniProt Q86YC2, whole entry: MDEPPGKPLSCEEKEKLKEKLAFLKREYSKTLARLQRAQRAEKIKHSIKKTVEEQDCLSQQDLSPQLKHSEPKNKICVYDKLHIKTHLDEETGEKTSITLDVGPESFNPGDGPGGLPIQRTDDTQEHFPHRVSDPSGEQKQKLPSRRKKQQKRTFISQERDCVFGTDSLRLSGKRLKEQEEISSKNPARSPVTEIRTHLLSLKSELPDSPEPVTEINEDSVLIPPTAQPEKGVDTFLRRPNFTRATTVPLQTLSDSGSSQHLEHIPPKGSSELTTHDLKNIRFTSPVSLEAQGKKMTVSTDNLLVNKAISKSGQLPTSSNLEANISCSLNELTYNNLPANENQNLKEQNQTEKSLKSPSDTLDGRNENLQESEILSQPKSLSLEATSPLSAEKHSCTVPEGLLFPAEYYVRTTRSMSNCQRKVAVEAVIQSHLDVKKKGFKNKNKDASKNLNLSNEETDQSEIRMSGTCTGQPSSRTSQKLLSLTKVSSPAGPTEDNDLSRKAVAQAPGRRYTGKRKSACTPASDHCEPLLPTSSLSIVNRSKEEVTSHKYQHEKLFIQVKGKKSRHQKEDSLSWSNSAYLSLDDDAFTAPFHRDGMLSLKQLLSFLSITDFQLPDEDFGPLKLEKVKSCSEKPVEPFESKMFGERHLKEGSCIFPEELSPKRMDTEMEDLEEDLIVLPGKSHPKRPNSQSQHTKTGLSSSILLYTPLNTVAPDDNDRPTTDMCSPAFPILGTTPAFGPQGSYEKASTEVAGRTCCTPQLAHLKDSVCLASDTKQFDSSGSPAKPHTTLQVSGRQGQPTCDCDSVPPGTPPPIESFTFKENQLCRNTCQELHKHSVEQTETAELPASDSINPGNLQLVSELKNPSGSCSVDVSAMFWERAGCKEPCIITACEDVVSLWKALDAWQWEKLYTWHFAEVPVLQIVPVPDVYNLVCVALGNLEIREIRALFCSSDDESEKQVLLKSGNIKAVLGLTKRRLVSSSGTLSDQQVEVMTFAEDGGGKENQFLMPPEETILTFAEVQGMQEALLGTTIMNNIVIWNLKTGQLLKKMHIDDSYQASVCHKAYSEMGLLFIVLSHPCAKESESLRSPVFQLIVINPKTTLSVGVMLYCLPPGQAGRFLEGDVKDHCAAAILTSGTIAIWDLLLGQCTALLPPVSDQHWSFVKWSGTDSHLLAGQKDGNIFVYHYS
UniProt Q8N3D4: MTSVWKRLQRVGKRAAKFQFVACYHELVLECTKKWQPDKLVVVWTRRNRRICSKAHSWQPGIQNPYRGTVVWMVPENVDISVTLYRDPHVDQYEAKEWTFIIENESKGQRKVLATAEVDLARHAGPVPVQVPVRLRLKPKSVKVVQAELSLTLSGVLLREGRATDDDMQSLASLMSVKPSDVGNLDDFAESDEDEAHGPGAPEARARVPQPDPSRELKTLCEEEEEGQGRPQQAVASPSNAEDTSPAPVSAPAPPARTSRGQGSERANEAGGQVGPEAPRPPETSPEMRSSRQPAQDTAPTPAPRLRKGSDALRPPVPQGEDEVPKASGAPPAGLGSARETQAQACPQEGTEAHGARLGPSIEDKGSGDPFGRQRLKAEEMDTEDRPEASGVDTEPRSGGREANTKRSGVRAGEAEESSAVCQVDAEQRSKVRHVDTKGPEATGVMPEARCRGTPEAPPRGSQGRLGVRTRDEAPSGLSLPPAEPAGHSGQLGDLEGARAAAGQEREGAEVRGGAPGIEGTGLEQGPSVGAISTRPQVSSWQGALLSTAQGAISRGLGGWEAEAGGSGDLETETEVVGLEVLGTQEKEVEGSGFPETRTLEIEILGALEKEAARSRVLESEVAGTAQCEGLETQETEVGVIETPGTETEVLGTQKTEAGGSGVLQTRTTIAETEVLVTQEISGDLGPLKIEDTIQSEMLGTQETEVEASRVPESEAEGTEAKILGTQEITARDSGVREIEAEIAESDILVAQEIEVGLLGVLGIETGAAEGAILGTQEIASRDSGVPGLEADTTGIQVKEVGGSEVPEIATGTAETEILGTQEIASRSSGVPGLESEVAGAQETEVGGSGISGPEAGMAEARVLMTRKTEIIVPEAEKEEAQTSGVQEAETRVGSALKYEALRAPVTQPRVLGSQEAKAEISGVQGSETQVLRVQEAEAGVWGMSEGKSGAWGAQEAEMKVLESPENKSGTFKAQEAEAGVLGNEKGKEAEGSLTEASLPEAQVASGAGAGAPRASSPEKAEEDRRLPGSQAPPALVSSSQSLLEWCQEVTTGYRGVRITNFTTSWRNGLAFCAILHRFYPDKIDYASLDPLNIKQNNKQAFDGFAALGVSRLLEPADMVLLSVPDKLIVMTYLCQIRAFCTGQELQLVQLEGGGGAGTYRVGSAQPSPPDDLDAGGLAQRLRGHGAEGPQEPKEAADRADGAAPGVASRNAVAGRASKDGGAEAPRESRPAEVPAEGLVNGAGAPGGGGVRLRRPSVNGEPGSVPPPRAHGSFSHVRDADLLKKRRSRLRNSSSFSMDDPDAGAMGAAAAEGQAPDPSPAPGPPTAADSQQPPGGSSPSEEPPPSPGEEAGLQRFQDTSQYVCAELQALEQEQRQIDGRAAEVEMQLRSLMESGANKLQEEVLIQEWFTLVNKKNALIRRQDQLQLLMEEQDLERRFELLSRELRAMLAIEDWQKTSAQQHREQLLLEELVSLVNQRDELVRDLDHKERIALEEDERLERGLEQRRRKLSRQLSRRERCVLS
UniProt Q8NB46: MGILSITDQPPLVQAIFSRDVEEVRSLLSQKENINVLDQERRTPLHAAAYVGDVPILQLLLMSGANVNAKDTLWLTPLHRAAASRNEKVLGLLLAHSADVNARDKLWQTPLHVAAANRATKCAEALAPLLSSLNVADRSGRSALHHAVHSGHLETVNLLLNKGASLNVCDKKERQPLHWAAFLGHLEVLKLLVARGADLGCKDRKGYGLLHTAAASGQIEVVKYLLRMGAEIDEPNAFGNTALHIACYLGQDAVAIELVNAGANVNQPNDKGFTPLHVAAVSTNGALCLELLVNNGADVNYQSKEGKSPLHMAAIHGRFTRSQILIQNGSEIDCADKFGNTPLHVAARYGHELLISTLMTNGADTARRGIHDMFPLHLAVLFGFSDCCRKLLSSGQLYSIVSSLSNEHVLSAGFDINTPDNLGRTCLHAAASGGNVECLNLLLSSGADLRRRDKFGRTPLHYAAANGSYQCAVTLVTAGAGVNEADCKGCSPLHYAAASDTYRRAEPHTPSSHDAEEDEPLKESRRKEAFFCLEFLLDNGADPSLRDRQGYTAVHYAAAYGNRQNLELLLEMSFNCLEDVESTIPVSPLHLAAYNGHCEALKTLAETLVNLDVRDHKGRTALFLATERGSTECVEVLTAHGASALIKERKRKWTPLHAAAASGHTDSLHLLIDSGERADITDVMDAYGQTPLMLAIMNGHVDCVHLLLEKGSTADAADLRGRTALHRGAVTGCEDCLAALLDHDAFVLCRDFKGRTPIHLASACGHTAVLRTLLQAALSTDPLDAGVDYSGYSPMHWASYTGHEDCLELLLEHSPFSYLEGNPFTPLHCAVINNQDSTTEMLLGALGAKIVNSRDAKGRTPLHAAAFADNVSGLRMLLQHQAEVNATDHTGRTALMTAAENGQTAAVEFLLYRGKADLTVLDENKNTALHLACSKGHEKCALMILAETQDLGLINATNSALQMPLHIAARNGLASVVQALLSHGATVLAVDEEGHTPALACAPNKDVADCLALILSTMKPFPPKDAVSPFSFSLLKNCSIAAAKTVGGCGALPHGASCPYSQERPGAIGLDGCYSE
UniProt Q8IXT5: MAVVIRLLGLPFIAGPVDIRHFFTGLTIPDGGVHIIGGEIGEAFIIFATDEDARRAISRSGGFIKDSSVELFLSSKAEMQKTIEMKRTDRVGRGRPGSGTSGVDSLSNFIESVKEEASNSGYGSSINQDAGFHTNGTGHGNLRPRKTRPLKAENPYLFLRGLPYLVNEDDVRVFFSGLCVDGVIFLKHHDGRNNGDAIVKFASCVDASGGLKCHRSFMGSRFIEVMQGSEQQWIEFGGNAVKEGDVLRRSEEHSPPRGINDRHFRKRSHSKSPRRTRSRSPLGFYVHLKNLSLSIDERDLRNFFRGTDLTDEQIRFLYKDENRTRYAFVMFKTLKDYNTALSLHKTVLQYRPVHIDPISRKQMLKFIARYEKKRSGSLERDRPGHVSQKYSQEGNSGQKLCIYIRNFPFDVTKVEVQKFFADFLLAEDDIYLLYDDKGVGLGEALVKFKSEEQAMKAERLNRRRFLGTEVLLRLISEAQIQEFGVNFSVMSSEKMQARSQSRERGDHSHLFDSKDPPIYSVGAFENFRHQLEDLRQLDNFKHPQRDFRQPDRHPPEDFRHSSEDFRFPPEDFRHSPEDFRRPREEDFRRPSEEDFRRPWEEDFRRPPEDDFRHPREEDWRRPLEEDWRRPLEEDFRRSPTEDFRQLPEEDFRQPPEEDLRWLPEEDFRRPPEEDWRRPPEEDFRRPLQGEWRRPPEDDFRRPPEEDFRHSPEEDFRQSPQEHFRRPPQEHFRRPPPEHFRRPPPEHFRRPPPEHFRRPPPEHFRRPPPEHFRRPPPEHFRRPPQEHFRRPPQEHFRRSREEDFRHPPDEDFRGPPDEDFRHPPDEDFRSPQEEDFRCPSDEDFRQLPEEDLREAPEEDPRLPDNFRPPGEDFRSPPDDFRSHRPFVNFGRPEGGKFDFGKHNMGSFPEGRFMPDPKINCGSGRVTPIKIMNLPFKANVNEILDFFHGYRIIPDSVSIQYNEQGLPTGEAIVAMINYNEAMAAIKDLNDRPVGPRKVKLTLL
UniProt Q8IXQ3: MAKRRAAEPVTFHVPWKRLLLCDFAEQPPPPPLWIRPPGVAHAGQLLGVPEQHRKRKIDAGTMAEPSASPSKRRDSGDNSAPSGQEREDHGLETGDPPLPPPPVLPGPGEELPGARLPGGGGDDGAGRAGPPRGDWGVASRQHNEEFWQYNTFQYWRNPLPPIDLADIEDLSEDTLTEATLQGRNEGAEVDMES
UniProt Q86V21: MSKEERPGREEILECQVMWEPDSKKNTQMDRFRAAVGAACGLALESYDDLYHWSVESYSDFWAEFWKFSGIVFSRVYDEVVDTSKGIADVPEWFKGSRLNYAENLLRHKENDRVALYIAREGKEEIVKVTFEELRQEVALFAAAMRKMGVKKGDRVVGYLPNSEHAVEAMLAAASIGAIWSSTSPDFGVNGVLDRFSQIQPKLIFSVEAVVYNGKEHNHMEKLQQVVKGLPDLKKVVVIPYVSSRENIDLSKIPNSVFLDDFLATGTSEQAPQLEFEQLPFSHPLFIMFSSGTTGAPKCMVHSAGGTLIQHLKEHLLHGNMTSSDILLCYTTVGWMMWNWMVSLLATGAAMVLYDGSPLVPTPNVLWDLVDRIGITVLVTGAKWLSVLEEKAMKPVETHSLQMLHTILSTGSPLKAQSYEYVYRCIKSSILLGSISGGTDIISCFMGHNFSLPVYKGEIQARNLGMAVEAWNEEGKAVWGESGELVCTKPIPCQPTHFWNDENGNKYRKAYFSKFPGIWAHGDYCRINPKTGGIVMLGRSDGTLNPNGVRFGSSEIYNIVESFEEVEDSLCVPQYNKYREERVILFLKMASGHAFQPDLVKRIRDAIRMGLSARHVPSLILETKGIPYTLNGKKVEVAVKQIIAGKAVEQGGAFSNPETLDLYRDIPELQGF

Target	NP40-soluble protein abundance (concentration: 1mM)	NP40-soluble protein abundance (concentration: 2mM)	NP40-soluble protein abundance (concentration: 4mM)	NP40-soluble protein abundance (concentration: 6mM)	NP40-soluble protein abundance (concentration: 8mM)	NP40-soluble protein abundance (concentration: 10mM)
PDSS2 (UniProt Q86YH6)	0.984 ± 0.029	1.02 ± 0.026	0.999 ± 0.021	0.995 ± 0.02	0.98 ± 0.04	0.978 ± 0.024
UniProt Q8IW45	0.989 ± 0.02	0.968 ± 0.033	1.006 ± 0.0069	0.969 ± 0.012	0.983 ± 0.018	0.982 ± 0.029
GPD1L (UniProt Q8N335)	1 ± 0.029	0.992 ± 0.043	0.979 ± 0.045	0.95 ± 0.012	0.938 ± 0.024	0.961 ± 0.051
GLCCI1 (UniProt Q86VQ1)	1.027 ± 0.006	1.06 ± 0.035	0.994 ± 0.046	1.01 ± 0.04	0.9966 ± 0.0028	0.9912 ± 0.0063
UniProt Q8IUF8 and related entries	1.05 ± 0.026	1.04 ± 0.028	1.09 ± 0.019	1.08 ± 0.038	1.1 ± 0.033	1.08 ± 0.028
C1orf52 (UniProt Q8N6N3)	0.966 ± 0.027	1.01 ± 0.08	0.993 ± 0.011	0.9843 ± 0.0059	0.947 ± 0.017	0.965 ± 0.014
CACUL1 (UniProt Q86Y37)	1.03 ± 0.037	1.04 ± 0.017	1.04 ± 0.027	1 ± 0.014	1.02 ± 0.013	0.986 ± 0.025
LMTK2 (UniProt Q8IWU2)	1.021 ± 0.0014	0.991 ± 0.022	0.994 ± 0.014	1 ± 0.026	1.0012 ± 0.00042	0.972 ± 0.014
UniProt Q86UA6 and related entries	1.02 ± 0.017	0.98 ± 0.038	0.956 ± 0.034	0.9421 ± 0.0054	0.938 ± 0.038	0.908 ± 0.045
METTL3 (UniProt Q86U44)	1.02 ± 0.013	1.02 ± 0.017	1.02 ± 0.015	0.996 ± 0.013	0.999 ± 0.01	0.99 ± 0.017
UniProt Q8NBF6 and related entries	0.964 ± 0.046	0.998 ± 0.063	0.99 ± 0.041	0.964 ± 0.045	0.963 ± 0.019	0.955 ± 0.023
UniProt Q7Z7F0	1.01 ± 0.049	1.07 ± 0.046	1.01 ± 0.048	1.064 ± 0.0095	1.03 ± 0.014	1.09 ± 0.04
UniProt Q8IU60 and related entries	0.986 ± 0.055	0.987 ± 0.048	0.993 ± 0.067	0.97 ± 0.058	0.965 ± 0.038	0.982 ± 0.059
UniProt Q86U86 and related entries	1.051 ± 0.009	1.1 ± 0.014	1.15 ± 0.017	1.226 ± 0.008	1.29 ± 0.035	1.37 ± 0.09
UniProt Q86YC3	0.9427 ± 0.0038	0.964 ± 0.0084	0.98962 ± 0.00011	0.987 ± 0.02	0.981 ± 0.021	0.975 ± 0.018
UniProt Q8IWD4 and related entries	1.038 ± 0.0055	1.04 ± 0.029	1.01 ± 0.027	0.984 ± 0.014	0.991 ± 0.027	0.953 ± 0.02
UniProt Q86TI2 and related entries	0.978 ± 0.016	0.875 ± 0.1	0.945 ± 0.019	0.912 ± 0.039	0.943 ± 0.046	0.9 ± 0.016
UniProt Q8N983-4|B1AL05 and related entries	0.926 ± 0.099	0.956 ± 0.1	0.915 ± 0.058	0.856 ± 0.13	0.855 ± 0.12	0.815 ± 0.14
UniProt Q86WJ1 and related entries	0.989 ± 0.079	0.9547 ± 0.0042	1.02 ± 0.066	1.02 ± 0.071	1.06 ± 0.056	1.02 ± 0.042
UniProt Q8N766 and related entries	0.967 ± 0.032	0.947 ± 0.017	0.98 ± 0.046	1.06 ± 0.082	1.08 ± 0.066	1.06 ± 0.076

Target	NP40-soluble protein abundance (concentration: 1mM)	NP40-soluble protein abundance (concentration: 2mM)	NP40-soluble protein abundance (concentration: 4mM)	NP40-soluble protein abundance (concentration: 6mM)	NP40-soluble protein abundance (concentration: 8mM)	NP40-soluble protein abundance (concentration: 10mM)
UniProt Q8N0X7	0.966 ± 0.051	1.02 ± 0.076	0.951 ± 0.029	0.983 ± 0.018	0.935 ± 0.028	1.01 ± 0.028
RABEPK (UniProt Q7Z6M1)	1.005 ± 0.0085	0.995 ± 0.021	1.02 ± 0.029	0.984 ± 0.025	0.978 ± 0.018	0.985 ± 0.022
UniProt Q7Z6V5 and related entries	0.968 ± 0.034	1.01 ± 0.0097	0.977 ± 0.037	0.999 ± 0.088	0.974 ± 0.068	0.985 ± 0.077
UniProt Q86V88 and related entries	0.994 ± 0.051	0.983 ± 0.028	0.966 ± 0.031	0.98 ± 0.014	0.993 ± 0.034	0.975 ± 0.019
PALB2 (UniProt Q86YC2)	0.988 ± 0.015	0.993 ± 0.032	0.9748 ± 0.0057	0.9809 ± 0.0065	0.995 ± 0.021	0.9869 ± 0.0046
EHBP1L1 (UniProt Q8N3D4)	1.06 ± 0.028	1.11 ± 0.099	1.07 ± 0.11	1.02 ± 0.034	1.01 ± 0.059	1.01 ± 0.08
PRPF39 (UniProt Q86UA1)	0.987 ± 0.041	1 ± 0.053	1.03 ± 0.026	1 ± 0.054	0.996 ± 0.048	1.03 ± 0.021
DCUN1D3 (UniProt Q8IWE4)	1 ± 0.02	0.978 ± 0.02	0.967 ± 0.031	0.97 ± 0.026	0.9813 ± 0.0054	0.966 ± 0.03
UniProt Q86WQ0 and related entries	1.07 ± 0.041	1.08 ± 0.046	1.05 ± 0.019	1.07 ± 0.026	1.05 ± 0.025	1.07 ± 0.042
CCDC82 (UniProt Q8N4S0)	1 ± 0.025	1.03 ± 0.044	1.04 ± 0.031	1.05 ± 0.044	1.06 ± 0.084	1.11 ± 0.024
ANKRD52 (UniProt Q8NB46)	1.04 ± 0.038	1.02 ± 0.013	1.02 ± 0.012	1 ± 0.023	1.01 ± 0.05	1 ± 0.021
UniProt Q8N4N3 and related entries	1 ± 0.013	0.996 ± 0.019	0.981 ± 0.027	0.96 ± 0.019	0.981 ± 0.027	0.959 ± 0.017
RBM12B (UniProt Q8IXT5)	1.01 ± 0.035	1.02 ± 0.022	1.046 ± 0.0077	1.11 ± 0.038	1.12 ± 0.048	1.11 ± 0.056
C9orf40 (UniProt Q8IXQ3)	1 ± 0.021	1.02 ± 0.028	1 ± 0.032	0.993 ± 0.033	0.966 ± 0.028	0.98 ± 0.045
UniProt Q8IXI2-2|Q8IXI2-3	0.97 ± 0.013	0.935 ± 0.088	0.998 ± 0.019	1.04 ± 0.051	1.04 ± 0.056	0.994 ± 0.05
RFLNB (UniProt Q8N5W9)	0.988 ± 0.023	1.05 ± 0.017	1.01 ± 0.034	1 ± 0.051	1.01 ± 0.036	1.03 ± 0.055
TTC5 (UniProt Q8N0Z6)	1.01 ± 0.071	0.971 ± 0.04	0.998 ± 0.029	0.991 ± 0.073	1.03 ± 0.051	1.01 ± 0.014
SMG6 (UniProt Q86US8)	1.06 ± 0.021	1.08 ± 0.05	1.08 ± 0.015	1.06 ± 0.065	1.08 ± 0.051	1.11 ± 0.067
UniProt Q86TN4 and related entries	1.024 ± 0.0098	1.03 ± 0.022	1.11 ± 0.034	1.1 ± 0.052	1.16 ± 0.042	1.13 ± 0.019
AACS (UniProt Q86V21)	0.974 ± 0.021	0.923 ± 0.035	0.973 ± 0.024	0.931 ± 0.011	0.936 ± 0.01	0.9257 ± 0.0035

Single records, from the list above:
UniProt Q8N0X7 as listed: NP40-soluble protein abundance (concentration: 1mM): 0.966 ± 0.051; NP40-soluble protein abundance (concentration: 2mM): 1.02 ± 0.076; NP40-soluble protein abundance (concentration: 4mM): 0.951 ± 0.029; NP40-soluble protein abundance (concentration: 6mM): 0.983 ± 0.018; NP40-soluble protein abundance (concentration: 8mM): 0.935 ± 0.028; NP40-soluble protein abundance (concentration: 10mM): 1.01 ± 0.028
RBM12B (UniProt Q8IXT5) as listed: NP40-soluble protein abundance (concentration: 1mM): 1.01 ± 0.035; NP40-soluble protein abundance (concentration: 2mM): 1.02 ± 0.022; NP40-soluble protein abundance (concentration: 4mM): 1.046 ± 0.0077; NP40-soluble protein abundance (concentration: 6mM): 1.11 ± 0.038; NP40-soluble protein abundance (concentration: 8mM): 1.12 ± 0.048; NP40-soluble protein abundance (concentration: 10mM): 1.11 ± 0.056
